Laboratory results: PubChem BioAssay AID493246 (Drosophila RNAi Screening Center, 2011)

Aim: 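Genome-wide search for dsRNAs that reduce cell number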 (primary screen)
System: Drosophila Kc and S2R+ cells
Reagents: long dsRNA against Drosophila genes
Detection: 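Raw, unnormalised count of remaining cells in each well; per-plate z-scores of cell number underlie the calls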
Scale: Kc cell number and S2R+ cell number: higher = more cells remaining
Call rule: 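Active when the per-plate z-score of cell number is 3 or more in the direction of fewer cells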
The screen tested about 21,000 reagents; this is an unselected part of those that have a named target and a result. Over the whole deposit, 429 (2%) were called active. 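Values are raw and not normalised between plates; calls rest on per-plate z-scores that were not deposited.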 Unmarked entries are inactive. Not given: the amount of reagent, the time to read-out.

target | dsRNA | Kc cell number, rep 1 | Kc cell number, rep 2 | S2R+ cell number, rep 1 | S2R+ cell number, rep 2
Lztr1 | DRSC18176 | 1.46e6 | 1.42e6 | 1.02e6 | 1.05e6
Lztr1 | DRSC18647 | 1.45e6 | 1.45e6 | 9.75e5 | 1.09e6
CG1299 | DRSC08300 | 1.48e6 | 1.56e6 | 1.09e6 | 1.36e6
CG6470 | DRSC19994 | 1.48e6 | 1.50e6 | 1.06e6 | 1.21e6
CG4872 | DRSC19921 | 1.44e6 | 1.54e6 | 1.06e6 | 1.19e6
Rsf1 | DRSC03423 | 1.40e6 | 1.50e6 | 1.26e6 | 1.36e6
CG31676 | DRSC02387 | 1.57e6 | 1.64e6 | 1.24e6 | 4.05e5
Csgalnact | DRSC06228 | 1.52e6 | 1.56e6 | 1.31e6 | 1.35e6
Pdp | DRSC17825 | 5.73e5 | – | 9.09e5 | –
Amy-d | DRSC05919 | 1.48e6 | 1.59e6 | 1.14e6 | 1.25e6
ND6 (retired record) | DRSC21271 | 1.48e6 | 1.54e6 | 1.07e6 | 1.19e6
D | DRSC11132 | 1.54e6 | 1.50e6 | 1.21e6 | 1.29e6
CG4452 | DRSC10422 | 1.61e6 | 1.60e6 | 1.13e6 | 1.15e6
CG3277 | DRSC00588 | 1.54e6 | 1.37e6 | 1.14e6 | 1.28e6
CG34205 | DRSC04149 | 1.66e6 | 1.81e6 | 1.38e6 | 4.52e5
CG13924 | DRSC08393 | 1.61e6 | 1.43e6 | 1.13e6 | 1.36e6
Ing5 | DRSC03188 | 1.20e6 | 1.25e6 | 1.14e6 | 1.17e6
SAK | DRSC11879 | 1.37e6 | 1.57e6 | 1.26e6 | 1.33e6
Gbeta5 | DRSC17754 | 1.63e6 | 1.58e6 | 1.05e6 | 1.15e6
CG31788 | DRSC01630 | 1.58e6 | 1.65e6 | 9.79e5 | 1.25e6
ntc | DRSC08166 | 1.38e6 | 1.48e6 | 1.30e6 | 1.22e6
Osi13 | DRSC12281 | 1.58e6 | 1.78e6 | 1.28e6 | 1.48e6
Orcokinin | DRSC04202 | 1.67e6 | 1.70e6 | 1.32e6 | 1.43e6
CG9609 | DRSC20199 | 1.57e6 | 1.65e6 | 1.08e6 | 1.26e6

3 of these entries in another layout:
{"target":"CG34205","dsRNA":"DRSC04149","Kc cell number, rep 1":1.66e6,"Kc cell number, rep 2":1.81e6,"S2R+ cell number, rep 1":1.38e6,"S2R+ cell number, rep 2":4.52e5}
{"target":"CG13924","dsRNA":"DRSC08393","Kc cell number, rep 1":1.61e6,"Kc cell number, rep 2":1.43e6,"S2R+ cell number, rep 1":1.13e6,"S2R+ cell number, rep 2":1.36e6}
{"target":"Ing5","dsRNA":"DRSC03188","Kc cell number, rep 1":1.20e6,"Kc cell number, rep 2":1.25e6,"S2R+ cell number, rep 1":1.14e6,"S2R+ cell number, rep 2":1.17e6}
